Test [1] deals with GFP tagged glucocorticoid receptor (GFP-GR) (UniProt P04150). Put plainly: co-IP; HEK293T cells (5 x 10^6) co-transfected (5 ug each plasmid, 48 h), lysed in RIPA buffer, precleared with Protein G Plus agarose; anti-GR or anti-CX43 (1:200) at 4 C overnight, Protein G agarose, washed with PBS; western blot. (In general: Immunoblotting shows a protein as a band on a membrane.)
In test [2] the target is FLAG tagged glucocorticoid receptor (GR) (UniProt P04150). The description is as above.

Amino acid sequences for entries named in this document (tags omitted).
UniProt P04150: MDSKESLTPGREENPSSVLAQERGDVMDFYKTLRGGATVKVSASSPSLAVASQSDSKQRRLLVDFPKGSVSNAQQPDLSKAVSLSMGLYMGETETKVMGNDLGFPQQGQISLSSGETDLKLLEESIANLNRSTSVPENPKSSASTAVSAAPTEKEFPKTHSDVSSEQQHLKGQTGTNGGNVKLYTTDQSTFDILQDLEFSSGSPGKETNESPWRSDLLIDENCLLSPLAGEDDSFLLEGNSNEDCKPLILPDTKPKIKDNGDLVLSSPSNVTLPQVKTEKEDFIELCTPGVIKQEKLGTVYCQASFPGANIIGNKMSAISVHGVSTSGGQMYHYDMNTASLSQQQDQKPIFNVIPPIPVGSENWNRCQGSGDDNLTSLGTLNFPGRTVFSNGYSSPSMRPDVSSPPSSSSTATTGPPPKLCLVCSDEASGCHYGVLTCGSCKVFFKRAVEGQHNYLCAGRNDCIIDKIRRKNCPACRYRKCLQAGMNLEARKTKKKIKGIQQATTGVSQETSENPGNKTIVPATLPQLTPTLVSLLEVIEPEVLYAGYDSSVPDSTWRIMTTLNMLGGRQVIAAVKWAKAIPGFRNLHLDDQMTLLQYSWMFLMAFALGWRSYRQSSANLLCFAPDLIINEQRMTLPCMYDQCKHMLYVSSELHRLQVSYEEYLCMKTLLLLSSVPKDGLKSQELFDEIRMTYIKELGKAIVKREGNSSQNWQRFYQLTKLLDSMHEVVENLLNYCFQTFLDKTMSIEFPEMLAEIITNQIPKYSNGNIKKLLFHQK
UniProt P17302: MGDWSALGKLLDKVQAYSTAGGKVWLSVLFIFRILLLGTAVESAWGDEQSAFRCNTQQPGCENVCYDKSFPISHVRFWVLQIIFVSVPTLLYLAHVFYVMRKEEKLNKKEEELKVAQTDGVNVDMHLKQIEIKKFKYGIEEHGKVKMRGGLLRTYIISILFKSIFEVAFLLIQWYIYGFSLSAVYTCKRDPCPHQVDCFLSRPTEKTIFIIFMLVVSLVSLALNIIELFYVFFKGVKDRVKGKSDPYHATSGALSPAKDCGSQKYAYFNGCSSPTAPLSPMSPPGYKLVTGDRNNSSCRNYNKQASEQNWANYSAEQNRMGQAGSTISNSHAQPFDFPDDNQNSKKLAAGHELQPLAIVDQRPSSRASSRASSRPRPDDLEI

Results are given in words; binding and its absence hold for the method and conditions named. Binding seen in cells or lysates may run through a third protein. Some binding calls cover weakened binding; strength is not graded here.

For “FLAG tagged connexin 43 (FLAG-CX43) (from UniProt P17302 1-382)”, the binding result in test [1] is on record as “binds”. As for “connexin 43 (CX43), untagged, overexpressed (from UniProt P17302 1-382)”, the binding entry in test [2] is listed as “binds”.

The record behind these values is publication PMC8805874.
